Results deposited as PubChem BioAssay AID652259 (Drosophila RNAi Screening Center, 2013).
Test: 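Identify new Wingless signalling regulators in fly cells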 (primary screen). System: Drosophila clone 8 imaginal disc epithelial cells. Reagents: long dsRNA against Drosophila genes. Conditions: pathway stimulated by co-transfected Wingless expression plasmid. Measured: 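Dual luciferase reads per well after Wingless plasmid stimulation: reporter firefly light and Renilla control light; activity is firefly divided by Renilla, a ratio not deposited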. Direction: firefly reporter light: higher = more Wg reporter light, before normalisation; Renilla control light: higher = more transfected or surviving cells. Hit rule: 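Strong candidates differ from their plate mean by at least two out of four per-plate statistical tests; weak candidates meet just one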. Calls: active = candidate regulator (raises or lowers reporter); inactive = not a candidate.
The screen tested about 22,000 reagents; below is an unselected part of those with a known target gene and a result. Over the whole deposit, 233 (1.1%) got an active call. 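Light values are raw, unnormalised plate reads; the ratio scores behind the reporter calls were not deposited.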 Names joined by + are all predicted targets of the reagent. Not given: the amount of reagent, the time to read-out, the dose of the treatment.

no.	target gene	amplicon	reporter change call, replicate 1	firefly reporter light, replicate 1	firefly reporter light, replicate 2	Renilla control light, replicate 1	Renilla control light, replicate 2	call
1	CG6454 (GeneID 42904)	DRSC16044		2581	8112	1027	1699	inactive
2	red (GeneID 41738)	DRSC14477	Wg reporter activity raised	8538		1021		active
3	Wsck (GeneID 318600)	DRSC13682		3248		1403		inactive
4	CG3491 (GeneID 34870)	DRSC01934		1542	2885	896	1969	inactive
5	CG5390 (GeneID 34383)	DRSC02855		2274	7833	781	4020	inactive
6	CG43106 (GeneID 12797866)	DRSC04279		3064	7317	605	3005	inactive
7	Jon99Fii + Jon99Cii + Jon99Ciii + 1 more	DRSC15298		11098		3968		inactive
8	CG30491 (GeneID 35704)	DRSC21472		6.88e5	6.22e5	6.07e5	3.11e5	inactive
9	Cpr50Ca (GeneID 36523)	DRSC05454		22160		18464		inactive
10	Cpr50Ca (GeneID 36523)	DRSC06372		6967		2089		inactive
11	Cpr50Ca (GeneID 36523)	DRSC06375		8936		2420		inactive
12	RhoGAP16F (GeneID 32790)	DRSC20025		1824	4917	784	1933	inactive
13	RpL37-1 (GeneID 32446)	DRSC20149		21442		8644		inactive
14	RpL37-1 (GeneID 32446)	DRSC21646		5.76e5	6.40e5	2.19e5	2.12e5	inactive
15	SuUR (GeneID 45739)	DRSC11292		8540		3996		inactive
16	CHOp24 (GeneID 31382)	DRSC18310		3478	9082	1594	1962	inactive
17	trus (GeneID 41540)	DRSC15772		10853		2163		inactive
18	Cad89D (GeneID 42006)	DRSC15022		19539		4520		inactive

The list goes on (5 carried over from the part before).
no.	target gene	amplicon	reporter change call, replicate 1	firefly reporter light, replicate 1	firefly reporter light, replicate 2	Renilla control light, replicate 1	Renilla control light, replicate 2	call
14	RpL37-1 (GeneID 32446)	DRSC21646		5.76e5	6.40e5	2.19e5	2.12e5	inactive
15	SuUR (GeneID 45739)	DRSC11292		8540		3996		inactive
16	CHOp24 (GeneID 31382)	DRSC18310		3478	9082	1594	1962	inactive
17	trus (GeneID 41540)	DRSC15772		10853		2163		inactive
18	Cad89D (GeneID 42006)	DRSC15022		19539		4520		inactive
19	E(spl)m6-BFM (GeneID 43159)	DRSC16993		20657		18096		inactive
20	CG6867 (GeneID 32782)	DRSC20013		21409	6.62e5	14257	3.34e5	inactive
21	dob (GeneID 32436)	DRSC19948		2189	9958	1248	3763	inactive
22	Nplp4 (GeneID 50190)	DRSC00391		3591	5940	1744	3305	inactive
23	cona (GeneID 42213)	DRSC16281		17219		2405		inactive
24	CG33096 (GeneID 326251)	DRSC14440		3324	6154	1488	2109	inactive
25	Hexim (GeneID 41778)	DRSC15490		4920		1568		inactive
26	CG2574 (GeneID 32190)	DRSC19862		25140		9628		inactive
27	CG6790 (GeneID 41388)	DRSC16117		5501		2984		inactive
28	CG14644 (GeneID 40536)	DRSC12230		13212		5818		inactive
29	CG15876 (GeneID 38573)	DRSC08484		848	5869	769	2540	inactive
30	CG30008 (GeneID 246388)	DRSC21576		3.61e5	3.79e5	1.44e5	1.47e5	inactive
31	Dpm1 (GeneID 35240)	DRSC02018		2032	5537	502	2097	inactive
32	CG11961 (GeneID 37221)	DRSC06099		16103		4897		inactive
33	Qsox1 (GeneID 36464)	DRSC06878	Wg reporter activity raised	9303	7.24e5	3787	4.33e5	inactive
34	CG9297 (GeneID 41688)	DRSC16469		6178		3355		inactive
35	CG12672 (GeneID 32781)	DRSC19482		19946		12188		inactive
36	DZIP1 (GeneID 42921)	DRSC14620		18992		18210		inactive
37	key (GeneID 37967)	DRSC04285		19296		5480		inactive
38	CG18731 (GeneID 59246)	DRSC15377		7264		4164		inactive
39	CG4880 (GeneID 32680)	DRSC19923		3442	10352	1174	2551	inactive
40	Hrb98DE (GeneID 43385)	DRSC16709		1397	7506	907	2458	inactive
41	CG17271 (GeneID 42463)	DRSC15210		21104		4368		inactive
42	CG17271 (GeneID 42463)	DRSC22629		8.69e5	9.34e5	81646	28174	inactive
43	CG7183 (GeneID 42181)	DRSC16210		2132	5898	1112	1586	inactive
44	Mesh1 (GeneID 43456)	DRSC14433		4597		1926		inactive
45	Nepl10 (GeneID 36366)	DRSC07212		10263		3995		inactive
46	CG5815 (GeneID 43266)	DRSC14135		10468		3642		inactive
47	CG6927 (GeneID 31419)	DRSC18407		1752	8477	884	1410	inactive
48	CG42561 (GeneID 8674029)	DRSC05676		18481		11107		inactive
49	CG12391 (GeneID 36170)	DRSC06147		10972		3296		inactive
